Measured values as given in publication PMC11253601.
Results are given in words; binding and its absence hold for the method and conditions named. For some assays here: In cells and extracts the contact can be indirect. Some results given as binding are weak or reduced against the parent protein; the word gives no strength.

Chains of the proteins cited; added tags and fusions are not shown.
UniProt O00401: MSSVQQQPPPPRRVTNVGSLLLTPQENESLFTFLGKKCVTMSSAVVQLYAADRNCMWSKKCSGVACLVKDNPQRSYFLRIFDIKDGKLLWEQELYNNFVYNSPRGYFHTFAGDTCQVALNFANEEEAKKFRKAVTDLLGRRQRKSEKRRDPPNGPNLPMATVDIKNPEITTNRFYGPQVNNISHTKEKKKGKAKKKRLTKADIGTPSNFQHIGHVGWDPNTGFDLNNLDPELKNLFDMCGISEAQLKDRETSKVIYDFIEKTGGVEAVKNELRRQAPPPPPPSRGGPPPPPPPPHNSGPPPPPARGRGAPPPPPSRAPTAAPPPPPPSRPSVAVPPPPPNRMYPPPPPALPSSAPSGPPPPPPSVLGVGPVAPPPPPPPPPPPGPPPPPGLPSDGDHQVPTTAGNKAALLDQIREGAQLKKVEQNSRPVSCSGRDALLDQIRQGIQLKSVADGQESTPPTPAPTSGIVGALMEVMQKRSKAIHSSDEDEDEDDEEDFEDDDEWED

How the values were obtained:
[1] = biological target: MBP-N-WASP, full-length N-WASP fused to the maltose-binding protein (UniProt O00401); test: pull-down; both purified
[2] = biological target: NpeA(90-170)-6×His, recombinant soluble fragment of NpeA (amino acids 90–170, contains the SLiM) fus (Brucella abortus) (UniProt Q2YJ33); test: pull-down; only the target purified

Row | Substance | binding [1] | binding [2]
1 | NpeA(90-170)-6×His, recombinant soluble fragment of NpeA (amino acids 90–170, contains the SLiM) fus (from UniProt Q2YJ33 90-170) (domain or fragment) | binds | –
2 | endogenous N-WASP from HeLa cell lysate (from UniProt O00401 1-505) | – | binds
